From paper PMC7980224
These are yes or no findings as the source states them, for the method shown. Binding seen in cells or lysates may run through a third protein. Some binding calls cover weakened binding; strength is not graded here.

The chains behind the UniProt entries cited, without tags or fusion partners. Where a name states a change or a piece, a line headed by the entry shows the natural chain unless it says otherwise.
UniProt Q9NV88, whole entry: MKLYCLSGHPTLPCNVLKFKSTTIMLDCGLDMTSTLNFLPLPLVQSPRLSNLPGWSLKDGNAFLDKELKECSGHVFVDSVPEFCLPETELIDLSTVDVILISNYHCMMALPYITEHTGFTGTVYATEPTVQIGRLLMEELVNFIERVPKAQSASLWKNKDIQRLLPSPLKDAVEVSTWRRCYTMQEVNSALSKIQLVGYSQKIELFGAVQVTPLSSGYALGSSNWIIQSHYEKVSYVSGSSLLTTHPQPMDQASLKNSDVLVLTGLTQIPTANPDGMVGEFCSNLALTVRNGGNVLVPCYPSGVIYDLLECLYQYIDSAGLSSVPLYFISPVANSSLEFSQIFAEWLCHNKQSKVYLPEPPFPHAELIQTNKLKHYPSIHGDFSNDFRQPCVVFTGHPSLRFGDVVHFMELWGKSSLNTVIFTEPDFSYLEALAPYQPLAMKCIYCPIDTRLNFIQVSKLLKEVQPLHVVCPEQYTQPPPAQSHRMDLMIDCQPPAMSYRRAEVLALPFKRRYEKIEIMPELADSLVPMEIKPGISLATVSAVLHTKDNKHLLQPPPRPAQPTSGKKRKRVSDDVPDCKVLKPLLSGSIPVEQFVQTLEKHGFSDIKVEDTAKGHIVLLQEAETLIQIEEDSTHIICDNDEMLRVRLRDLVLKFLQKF
UniProt Q96HW7, whole entry: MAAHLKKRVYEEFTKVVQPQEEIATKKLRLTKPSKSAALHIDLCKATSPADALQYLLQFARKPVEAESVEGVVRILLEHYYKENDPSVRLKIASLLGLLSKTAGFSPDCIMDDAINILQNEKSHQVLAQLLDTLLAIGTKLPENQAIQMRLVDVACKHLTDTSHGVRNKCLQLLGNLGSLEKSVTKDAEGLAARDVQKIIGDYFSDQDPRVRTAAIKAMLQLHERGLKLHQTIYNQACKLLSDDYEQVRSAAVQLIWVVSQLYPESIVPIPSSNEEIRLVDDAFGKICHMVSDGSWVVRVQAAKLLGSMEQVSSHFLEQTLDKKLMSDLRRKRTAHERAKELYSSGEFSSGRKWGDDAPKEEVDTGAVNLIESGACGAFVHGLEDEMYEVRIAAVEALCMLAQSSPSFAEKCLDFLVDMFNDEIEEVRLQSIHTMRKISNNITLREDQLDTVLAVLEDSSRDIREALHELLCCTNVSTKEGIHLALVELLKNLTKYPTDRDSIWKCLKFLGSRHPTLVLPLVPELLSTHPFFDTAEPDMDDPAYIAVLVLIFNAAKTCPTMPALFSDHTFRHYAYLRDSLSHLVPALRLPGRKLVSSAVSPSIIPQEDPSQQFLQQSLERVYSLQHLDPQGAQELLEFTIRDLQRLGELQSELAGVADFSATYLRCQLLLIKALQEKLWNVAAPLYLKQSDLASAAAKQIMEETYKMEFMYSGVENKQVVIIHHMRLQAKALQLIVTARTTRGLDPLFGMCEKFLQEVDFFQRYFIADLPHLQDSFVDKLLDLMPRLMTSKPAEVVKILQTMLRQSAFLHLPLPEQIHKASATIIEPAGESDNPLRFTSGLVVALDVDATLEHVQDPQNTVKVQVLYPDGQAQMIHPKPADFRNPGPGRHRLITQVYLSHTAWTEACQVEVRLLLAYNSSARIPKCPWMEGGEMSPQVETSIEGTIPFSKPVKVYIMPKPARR

Molecular target: 3xHA-INTS9 (UniProt Q9NV88)
Assay: co-IP; SBP-INTS4, 3xHA-INTS9 and 3xFLAG-INTS11 variants co-expressed in HEK293T; HA-agarose (bait 3xHA-INTS9), 150 mM KCl, 20 mM HEPES-KOH pH 7.8, 0.1% Triton X-100 in lysis; western blot

Substance: SBP-INTS4 (from UniProt Q96HW7 1-963)
- binding: binds
